Experimental data reported in patent US6433186B1, “Amidino derivatives and their use as thormbin inhibitors” (AstraZeneca AB, priority 2000, dated 2002).
Some results were stated once for a whole list of compounds, not compound by compound. At least one structure is not confirmed: it was looked up by name or label, or the drawing left a doubt.

Legend:
[1] = target: T1, Human thrombin (Homo sapiens, UniProt P00734); assay: Test A: Determination of Thrombin Clotting Time (TT); type: biochemical; settings: concentration of inhibitor that doubles the thrombin clotting time in plasma
T1 construct: the conversion of the proenzyme prothrombin to the active enzyme thrombin; purchased Sigma Chem. Co or Hematologic Technologies T 6769

[2] = tested on: pooled normal human citrated plasma; assay: Test D: Determination of Activated Partial Thromboplastin Time (APTT); type: biochemical; settings: concentration of inhibitor in human plasma that doubled the Activated Partial Thromboplastin Time

Structure (SMILES): CNc1cc(Cl)cc([C@@H](O)C(=O)N2CC[C@H]2C(=O)NCc2ccc(C(=N)N)cc2)c1 [Example 1, Ph(3-Cl)(5-NHMe)-(R)CH(OH)C(O)-(S)Aze-Pab]
- IC50 [1]: < 20 nM
- IC50 [2]: < 1000 nM
